Values from PubChem BioAssay AID1224831 (NIAID, 2016).

Screen: 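Genes that support or restrain LPS-induced TNF-alpha reporter activity in macrophage-like cells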 (follow-up of hits)
System: human THP-1 B5 monocytic leukaemia cells carrying a TNF promoter luciferase reporter, made macrophage-like with PMA
Reagents: single siRNA against human genes, 50 nM
Duration: about 68 h of knock-down, then 4 h LPS
Challenge: LPS (Salmonella minnesota, TLR-grade) at 10 ng/ml for 4 h; PMA 5 ng/ml present during knock-down
Read-out: 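Firefly to renilla luciferase ratio of a TNF promoter reporter after 4 h LPS, scaled to plate median, turned into robust z-score, averaged over replicates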
Reading the numbers: TNF reporter z-score: higher = stronger LPS-induced TNF reporter signal; z-score, median over gene's siRNAs: higher = stronger TNF reporter signal across the gene's siRNAs
Hit rule: 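Active when the replicate mean z-score is about -1 or lower, or about 1.5 or higher; lowered and raised TNF reporter signal both count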
Meaning of the calls: active = changed TNF reporter (either direction); inactive = little change
In all, the deposit lists about 3,500 reagents; shown is an unselected part. 731 of them (21%) were called active. 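Active means either lowered or raised reporter signal; the gene-median score did not drive the per-siRNA calls.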 The numbers tell different reagents against one gene apart. Reagent sequences are not shown.

target gene,reagent,"TNF reporter z-score, replicate mean","z-score, median over gene's siRNAs",call
POFUT1,1,-0.99,0.405,inactive
POFUT1,2,0.47,0.405,inactive
POFUT1,3,0.25,0.405,inactive
POFUT1,4,0.78,0.405,inactive
POFUT1,5,0.34,0.405,inactive
POFUT1,6,0.93,0.405,inactive
ZNF343,1,0.39,0.745,inactive
ZNF343,2,1.2,0.745,inactive
ZNF343,3,0.21,0.745,inactive
ZNF343,4,2.33,0.745,active
ZNF343,5,-0.21,0.745,inactive
ZNF343,6,1.1,0.745,inactive
SPAG1,1,-0.77,-0.705,inactive
SPAG1,2,-0.64,-0.705,inactive
SPAG1,3,1.25,-0.705,inactive
SPAG1,4,-0.81,-0.705,inactive
SPAG1,5,-1.31,-0.705,active
SPAG1,6,0.8,-0.705,inactive
CCDC140,1,0.43,-0.815,inactive
CCDC140,2,-1.08,-0.815,active
CCDC140,3,-1.65,-0.815,active
CCDC140,4,-1.2,-0.815,active
CCDC140,5,-0.35,-0.815,inactive
CCDC140,6,-0.55,-0.815,inactive
COPS7A,1,-0.67,-0.205,inactive
COPS7A,2,-0.32,-0.205,inactive
COPS7A,3,-0.46,-0.205,inactive
COPS7A,4,-0.09,-0.205,inactive
COPS7A,5,5.2,-0.205,active
COPS7A,6,0.49,-0.205,inactive
H1-8,1,-0.72,0.29,inactive
H1-8,2,1.19,0.29,inactive
H1-8,3,-1.34,0.29,active
H1-8,4,0.88,0.29,inactive
H1-8,5,2.9,0.29,active
H1-8,6,-0.3,0.29,inactive
KNCN,1,0.46,0.515,inactive
KNCN,2,0.59,0.515,inactive
KNCN,3,1.55,0.515,active
KNCN,4,-0.29,0.515,inactive
KNCN,5,-0.2,0.515,inactive
KNCN,6,0.57,0.515,inactive
MICOS13,1,0.6,-0.22,inactive
MICOS13,2,-0.74,-0.22,inactive
MICOS13,3,0.06,-0.22,inactive
MICOS13,4,0.24,-0.22,inactive
MICOS13,5,-0.64,-0.22,inactive
MICOS13,6,-0.5,-0.22,inactive
PRKAG3,1,-0.53,0.5,inactive
PRKAG3,2,-0.23,0.5,inactive
PRKAG3,3,-0.02,0.5,inactive
PRKAG3,4,1.02,0.5,inactive
PRKAG3,5,1.12,0.5,inactive
PRKAG3,6,6.66,0.5,active
VPS25,1,-0.66,0.16,inactive
VPS25,2,1.2,0.16,inactive
VPS25,3,0.54,0.16,inactive
VPS25,4,0.69,0.16,inactive
VPS25,5,-0.52,0.16,inactive
VPS25,6,-0.22,0.16,inactive
TAC4,1,-0.56,-0.425,inactive
TAC4,2,0.4,-0.425,inactive
TAC4,3,-0.32,-0.425,inactive
TAC4,4,-0.37,-0.425,inactive
TAC4,5,-0.48,-0.425,inactive
TAC4,6,-1.43,-0.425,active
SERPINA4,1,0.04,0.17,inactive
SERPINA4,2,0.45,0.17,inactive
SERPINA4,3,0.3,0.17,inactive
SERPINA4,4,-0.32,0.17,inactive
SERPINA4,5,1.61,0.17,active
SERPINA4,6,-0.84,0.17,inactive
NLGN4X,1,-0.6,0.33,inactive
NLGN4X,2,0.95,0.33,inactive
NLGN4X,3,-0.26,0.33,inactive
NLGN4X,4,0.63,0.33,inactive
NLGN4X,5,0.03,0.33,inactive
NLGN4X,6,4.2,0.33,active
HARS2,1,0.49,0.615,inactive
HARS2,2,-0.19,0.615,inactive
HARS2,3,1.83,0.615,active
HARS2,4,-1.13,0.615,active
HARS2,5,0.74,0.615,inactive
HARS2,6,3.33,0.615,active
ALS2,1,-1.01,-0.75,active
ALS2,2,-0.49,-0.75,inactive
ALS2,3,-1.41,-0.75,active
ALS2,4,0.33,-0.75,inactive
ALS2,5,-1.01,-0.75,active
ALS2,6,-0.28,-0.75,inactive
ABT1,1,-0.75,-0.9,inactive
ABT1,2,-0.57,-0.9,inactive
ABT1,3,-1.69,-0.9,active
ABT1,4,-1.69,-0.9,active
ABT1,5,-0.79,-0.9,inactive
ABT1,6,-1.01,-0.9,active
PKM,1,0.73,0.525,inactive
PKM,2,-0.64,0.525,inactive
PKM,3,-0.04,0.525,inactive
PKM,4,0.77,0.525,inactive
PKM,5,0.32,0.525,inactive
PKM,6,1.88,0.525,active
ALMS1,1,-0.09,-0.025,inactive
ALMS1,2,1.13,-0.025,inactive
ALMS1,3,-1.74,-0.025,active
ALMS1,4,-1.23,-0.025,active
ALMS1,5,0.04,-0.025,inactive
ALMS1,6,0.24,-0.025,inactive

Part of the list above in another layout:
H1-8 #1 → TNF reporter z-score, replicate mean: -0.72; z-score, median over gene's siRNAs: 0.29; call: inactive
H1-8 #2 → TNF reporter z-score, replicate mean: 1.19; z-score, median over gene's siRNAs: 0.29; call: inactive
H1-8 #3 → TNF reporter z-score, replicate mean: -1.34; z-score, median over gene's siRNAs: 0.29; call: active
H1-8 #4 → TNF reporter z-score, replicate mean: 0.88; z-score, median over gene's siRNAs: 0.29; call: inactive
H1-8 #5 → TNF reporter z-score, replicate mean: 2.9; z-score, median over gene's siRNAs: 0.29; call: active
H1-8 #6 → TNF reporter z-score, replicate mean: -0.3; z-score, median over gene's siRNAs: 0.29; call: inactive
KNCN #1 → TNF reporter z-score, replicate mean: 0.46; z-score, median over gene's siRNAs: 0.515; call: inactive
KNCN #2 → TNF reporter z-score, replicate mean: 0.59; z-score, median over gene's siRNAs: 0.515; call: inactive
KNCN #3 → TNF reporter z-score, replicate mean: 1.55; z-score, median over gene's siRNAs: 0.515; call: active
KNCN #4 → TNF reporter z-score, replicate mean: -0.29; z-score, median over gene's siRNAs: 0.515; call: inactive
KNCN #5 → TNF reporter z-score, replicate mean: -0.2; z-score, median over gene's siRNAs: 0.515; call: inactive
KNCN #6 → TNF reporter z-score, replicate mean: 0.57; z-score, median over gene's siRNAs: 0.515; call: inactive
MICOS13 #1 → TNF reporter z-score, replicate mean: 0.6; z-score, median over gene's siRNAs: -0.22; call: inactive
MICOS13 #2 → TNF reporter z-score, replicate mean: -0.74; z-score, median over gene's siRNAs: -0.22; call: inactive
